Measured values reported in article PMC12229037.
These are yes or no findings as the source states them, for the method shown. Binding seen in cells or lysates may run through a third protein. Some binding calls cover weakened binding; strength is not graded here.

Protein sequences, listed by entry. Tags and fused reporters are not part of them. Lines headed by an entry give the natural chain unless they say otherwise; changes in a name come on top. Residues count along the entry.
UniProt Q09472: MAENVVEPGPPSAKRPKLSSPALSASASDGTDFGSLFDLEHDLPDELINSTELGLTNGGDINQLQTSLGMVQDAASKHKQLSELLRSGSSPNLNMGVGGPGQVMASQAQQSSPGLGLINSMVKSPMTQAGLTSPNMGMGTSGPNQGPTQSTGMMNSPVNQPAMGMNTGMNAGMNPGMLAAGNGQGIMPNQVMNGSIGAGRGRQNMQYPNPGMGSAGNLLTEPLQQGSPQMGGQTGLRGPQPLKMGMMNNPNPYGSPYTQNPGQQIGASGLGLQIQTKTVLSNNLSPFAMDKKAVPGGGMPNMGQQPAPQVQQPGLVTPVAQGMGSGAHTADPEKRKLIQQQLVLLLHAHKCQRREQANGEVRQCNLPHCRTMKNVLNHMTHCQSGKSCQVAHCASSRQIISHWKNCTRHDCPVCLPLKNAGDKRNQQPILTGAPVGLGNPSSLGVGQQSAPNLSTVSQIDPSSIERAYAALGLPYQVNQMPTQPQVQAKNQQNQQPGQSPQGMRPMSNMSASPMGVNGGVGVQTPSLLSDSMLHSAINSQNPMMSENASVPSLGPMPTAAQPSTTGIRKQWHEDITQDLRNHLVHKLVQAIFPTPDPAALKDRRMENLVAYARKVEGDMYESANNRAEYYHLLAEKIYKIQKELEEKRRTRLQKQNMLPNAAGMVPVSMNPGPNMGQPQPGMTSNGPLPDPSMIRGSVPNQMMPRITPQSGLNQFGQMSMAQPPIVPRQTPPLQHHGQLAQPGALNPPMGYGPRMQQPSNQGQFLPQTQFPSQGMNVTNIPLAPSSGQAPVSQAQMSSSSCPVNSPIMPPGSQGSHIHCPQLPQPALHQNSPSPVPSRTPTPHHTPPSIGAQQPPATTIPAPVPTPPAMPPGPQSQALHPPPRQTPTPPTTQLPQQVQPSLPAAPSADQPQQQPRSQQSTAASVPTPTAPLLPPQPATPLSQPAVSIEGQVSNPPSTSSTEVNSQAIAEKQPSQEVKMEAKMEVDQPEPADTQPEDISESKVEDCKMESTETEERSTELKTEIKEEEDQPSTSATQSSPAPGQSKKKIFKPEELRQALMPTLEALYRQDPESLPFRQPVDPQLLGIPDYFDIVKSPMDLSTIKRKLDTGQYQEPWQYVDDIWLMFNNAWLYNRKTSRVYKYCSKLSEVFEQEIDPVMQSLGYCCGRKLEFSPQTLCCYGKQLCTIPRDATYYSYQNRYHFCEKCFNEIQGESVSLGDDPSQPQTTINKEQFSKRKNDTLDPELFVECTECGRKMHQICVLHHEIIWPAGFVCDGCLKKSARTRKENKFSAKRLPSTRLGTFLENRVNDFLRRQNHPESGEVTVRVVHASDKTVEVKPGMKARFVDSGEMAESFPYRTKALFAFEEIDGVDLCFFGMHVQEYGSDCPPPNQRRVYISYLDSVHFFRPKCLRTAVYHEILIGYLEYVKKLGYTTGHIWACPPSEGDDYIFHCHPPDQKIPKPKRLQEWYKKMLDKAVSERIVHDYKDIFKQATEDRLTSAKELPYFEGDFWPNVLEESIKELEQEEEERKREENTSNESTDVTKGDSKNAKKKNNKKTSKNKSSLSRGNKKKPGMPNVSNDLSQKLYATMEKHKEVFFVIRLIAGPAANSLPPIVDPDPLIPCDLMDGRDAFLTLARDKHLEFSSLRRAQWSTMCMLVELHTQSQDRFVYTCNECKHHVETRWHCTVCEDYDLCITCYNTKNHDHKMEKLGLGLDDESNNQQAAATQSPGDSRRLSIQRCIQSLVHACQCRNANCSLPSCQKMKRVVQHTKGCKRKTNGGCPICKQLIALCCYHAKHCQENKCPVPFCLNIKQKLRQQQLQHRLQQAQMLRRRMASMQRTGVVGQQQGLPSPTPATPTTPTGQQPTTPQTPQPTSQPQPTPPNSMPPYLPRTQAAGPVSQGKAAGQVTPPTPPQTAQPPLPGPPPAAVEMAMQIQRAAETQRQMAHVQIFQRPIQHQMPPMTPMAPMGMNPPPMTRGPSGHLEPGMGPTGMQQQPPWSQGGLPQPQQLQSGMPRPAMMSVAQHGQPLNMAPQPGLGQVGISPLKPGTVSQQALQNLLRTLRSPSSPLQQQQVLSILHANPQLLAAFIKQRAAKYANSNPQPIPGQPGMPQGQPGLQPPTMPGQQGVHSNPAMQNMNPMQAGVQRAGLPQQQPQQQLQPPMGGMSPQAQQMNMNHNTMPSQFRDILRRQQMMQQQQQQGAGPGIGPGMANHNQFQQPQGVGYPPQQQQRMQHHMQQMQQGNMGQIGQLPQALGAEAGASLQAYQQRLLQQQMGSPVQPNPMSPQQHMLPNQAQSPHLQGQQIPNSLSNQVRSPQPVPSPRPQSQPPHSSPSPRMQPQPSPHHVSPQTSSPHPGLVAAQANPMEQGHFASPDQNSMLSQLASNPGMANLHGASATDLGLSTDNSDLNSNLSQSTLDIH
GST-p300 aa1-450: residues 1-450 of Q09472
GST-p300 aa1514-1922: residues 1514-1922 of Q09472
UniProt O14744: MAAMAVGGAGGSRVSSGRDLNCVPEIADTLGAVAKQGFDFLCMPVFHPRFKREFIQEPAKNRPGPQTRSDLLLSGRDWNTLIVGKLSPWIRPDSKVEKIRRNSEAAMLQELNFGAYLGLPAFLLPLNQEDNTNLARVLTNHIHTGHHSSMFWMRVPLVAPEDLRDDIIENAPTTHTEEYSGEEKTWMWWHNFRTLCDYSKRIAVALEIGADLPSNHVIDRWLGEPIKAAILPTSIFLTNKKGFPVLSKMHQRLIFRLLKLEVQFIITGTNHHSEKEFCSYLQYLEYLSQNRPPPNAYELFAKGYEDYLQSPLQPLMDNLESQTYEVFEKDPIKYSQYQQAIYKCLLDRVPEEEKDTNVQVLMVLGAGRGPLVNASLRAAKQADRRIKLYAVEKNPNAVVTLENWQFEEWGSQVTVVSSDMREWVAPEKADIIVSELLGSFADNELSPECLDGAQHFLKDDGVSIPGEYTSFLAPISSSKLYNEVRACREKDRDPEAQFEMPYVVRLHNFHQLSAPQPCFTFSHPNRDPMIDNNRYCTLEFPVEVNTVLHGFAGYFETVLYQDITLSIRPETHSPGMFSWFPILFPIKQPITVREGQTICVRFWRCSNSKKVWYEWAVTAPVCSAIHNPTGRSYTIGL

How the values were obtained:
p300 (human) = p300 (human) (UniProt Q09472); test: co-IP; nuclear extracts of HEK293T cells transfected with PRMT5 or PRMT5 mutant; p300 immunoprecipitated (antibody agarose, 2 h, four washes), Western blotting
[1] = target: GST-p300 aa1514-1922 (human) (UniProt Q09472); test: pull-down; GST-p300 fragments on glutathione-Sepharose 4B beads; 4 °C, 2 h, four washes; PRMT5 [35S]radiolabeled by in vitro translation or His6 fusion protein detected by anti-His blot (methods); only the target purified
GST-p300 aa1-450 (human) = GST-p300 aa1-450 (human) (UniProt Q09472); test: as above

Row | Substance | binding (p300 (human)) | binding [1] | binding (GST-p300 aa1-450 (human))
1 | PRMT5 point mutant (G367A), which lacks methyltransferase activity, Myc-tagged (from UniProt O14744 1-637) (enzyme) | binds | – | –
2 | PRMT5 used in the GST pull-down (from UniProt O14744 1-637) (enzyme) | – | binds | binds
